Experimental data: the supplement of paper PMC10849652
This is one part of the list.

Chains of the proteins cited; added tags and fusions are not shown. Lines headed by an entry give the natural chain unless they say otherwise; changes in a name come on top.
UniProt O60942: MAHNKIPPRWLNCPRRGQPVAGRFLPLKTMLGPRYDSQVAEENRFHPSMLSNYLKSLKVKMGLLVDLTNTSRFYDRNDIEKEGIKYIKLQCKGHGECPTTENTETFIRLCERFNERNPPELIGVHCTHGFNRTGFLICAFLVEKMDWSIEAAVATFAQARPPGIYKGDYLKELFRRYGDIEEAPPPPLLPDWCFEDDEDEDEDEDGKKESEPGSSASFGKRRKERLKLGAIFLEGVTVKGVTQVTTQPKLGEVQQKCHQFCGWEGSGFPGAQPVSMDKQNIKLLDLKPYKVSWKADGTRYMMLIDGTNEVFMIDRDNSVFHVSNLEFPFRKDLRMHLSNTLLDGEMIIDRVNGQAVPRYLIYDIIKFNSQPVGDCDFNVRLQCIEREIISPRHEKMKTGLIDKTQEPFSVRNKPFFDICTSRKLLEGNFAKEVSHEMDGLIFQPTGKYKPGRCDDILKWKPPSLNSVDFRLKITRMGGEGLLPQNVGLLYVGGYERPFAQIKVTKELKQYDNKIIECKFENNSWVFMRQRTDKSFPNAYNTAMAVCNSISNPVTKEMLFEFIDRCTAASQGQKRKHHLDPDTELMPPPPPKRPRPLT
UniProt P05386, whole entry, looked up: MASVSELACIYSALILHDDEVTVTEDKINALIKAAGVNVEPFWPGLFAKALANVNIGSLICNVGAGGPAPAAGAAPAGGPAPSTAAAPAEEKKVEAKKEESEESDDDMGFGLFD
UniProt P13489: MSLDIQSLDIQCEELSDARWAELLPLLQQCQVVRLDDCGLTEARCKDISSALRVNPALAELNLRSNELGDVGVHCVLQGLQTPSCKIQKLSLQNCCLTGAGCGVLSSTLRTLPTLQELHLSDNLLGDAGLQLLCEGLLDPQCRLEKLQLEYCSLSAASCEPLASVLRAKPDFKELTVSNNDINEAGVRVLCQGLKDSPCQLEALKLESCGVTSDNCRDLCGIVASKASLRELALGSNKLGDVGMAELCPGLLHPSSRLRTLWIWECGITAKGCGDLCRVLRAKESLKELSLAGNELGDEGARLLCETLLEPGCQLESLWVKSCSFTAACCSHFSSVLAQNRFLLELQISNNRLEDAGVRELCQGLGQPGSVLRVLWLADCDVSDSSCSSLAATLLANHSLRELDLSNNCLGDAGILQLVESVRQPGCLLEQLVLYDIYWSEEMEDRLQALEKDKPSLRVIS
UniProt Q96S38: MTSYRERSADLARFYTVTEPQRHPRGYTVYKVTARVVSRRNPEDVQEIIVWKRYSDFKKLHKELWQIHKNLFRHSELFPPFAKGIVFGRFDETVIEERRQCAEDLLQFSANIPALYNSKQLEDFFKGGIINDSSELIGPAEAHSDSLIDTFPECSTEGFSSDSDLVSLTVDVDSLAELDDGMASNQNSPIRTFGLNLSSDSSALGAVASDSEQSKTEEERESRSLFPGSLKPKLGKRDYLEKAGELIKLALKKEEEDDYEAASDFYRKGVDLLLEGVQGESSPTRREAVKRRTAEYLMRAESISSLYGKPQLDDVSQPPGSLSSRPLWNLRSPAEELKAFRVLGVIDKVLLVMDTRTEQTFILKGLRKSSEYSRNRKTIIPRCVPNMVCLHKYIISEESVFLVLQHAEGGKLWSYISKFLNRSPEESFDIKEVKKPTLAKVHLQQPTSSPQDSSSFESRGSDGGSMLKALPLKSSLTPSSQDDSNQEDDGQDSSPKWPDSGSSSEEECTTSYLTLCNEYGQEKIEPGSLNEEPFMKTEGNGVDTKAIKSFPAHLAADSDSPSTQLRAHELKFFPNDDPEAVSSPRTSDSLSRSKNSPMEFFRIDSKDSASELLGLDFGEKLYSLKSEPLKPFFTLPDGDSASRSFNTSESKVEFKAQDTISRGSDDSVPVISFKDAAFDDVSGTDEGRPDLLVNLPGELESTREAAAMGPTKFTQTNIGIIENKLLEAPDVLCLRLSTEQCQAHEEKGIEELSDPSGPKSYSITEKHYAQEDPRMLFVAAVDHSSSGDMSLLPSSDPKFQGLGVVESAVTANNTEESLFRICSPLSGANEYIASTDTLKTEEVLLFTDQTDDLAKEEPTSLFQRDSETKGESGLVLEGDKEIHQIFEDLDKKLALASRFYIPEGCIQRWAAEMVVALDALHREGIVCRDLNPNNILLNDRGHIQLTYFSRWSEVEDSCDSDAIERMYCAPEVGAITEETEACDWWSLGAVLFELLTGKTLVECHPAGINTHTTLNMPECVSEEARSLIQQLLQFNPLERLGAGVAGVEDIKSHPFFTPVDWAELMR
UniProt P23443: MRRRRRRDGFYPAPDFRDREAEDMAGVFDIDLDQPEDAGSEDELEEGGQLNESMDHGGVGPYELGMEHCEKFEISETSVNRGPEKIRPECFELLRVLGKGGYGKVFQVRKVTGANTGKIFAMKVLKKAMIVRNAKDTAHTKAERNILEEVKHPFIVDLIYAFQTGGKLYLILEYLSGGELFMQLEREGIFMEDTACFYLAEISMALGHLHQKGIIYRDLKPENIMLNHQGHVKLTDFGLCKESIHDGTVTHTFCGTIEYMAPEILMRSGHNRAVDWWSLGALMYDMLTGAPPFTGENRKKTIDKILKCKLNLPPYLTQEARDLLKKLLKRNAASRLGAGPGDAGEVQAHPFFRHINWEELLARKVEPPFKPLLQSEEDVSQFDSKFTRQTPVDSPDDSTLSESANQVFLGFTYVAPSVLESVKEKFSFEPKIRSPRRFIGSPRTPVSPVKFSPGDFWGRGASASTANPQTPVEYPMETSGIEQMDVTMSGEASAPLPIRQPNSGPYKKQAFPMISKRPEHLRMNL

Key:
Test in all cases: log2 fold change, soluble protein after heating vs DMSO (PISA); higher = thermal stabilisation; K562 cells, 10 uM, 30 min; active = over 0.2 and 3.5 SD of the protein, either way, in both replicates (recomputed)
[1] = compound: CC[C@@H]1C(=O)N(C)c2cnc(Nc3ccc(C(=O)NC4CCN(C)CC4)cc3OC)nc2N1C1CCCC1
Procedure, shortened: (§1)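 For each measurement, 10 μM compound was applied for 30 min to K562 cells at 2×10^6 cells/mL. Aliquots were heated for 3 min across 48°C-58°C, pooled, and extracted in PBS with 0.5% NP-40 at 4°C; the supernatant after 21,000xg for 90 min was soluble protein. This was quantified by TMTpro 16plex LC-MS/MS with channel sums equalised, and thermal stability was reported relative to control samples from duplicates, on a log2 fold-change scale.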

[2] = compound: CC[C@@H]1C(=O)N(C)c2cnc(Nc3ccc(C(=O)N[C@H]4CC[C@H](N5CCN(CC6CC6)CC5)CC4)cc3OC)nc2N1C(C)C [volasertib]
Procedure, shortened: as §1

[3] = compound: CC[C@H](C)N1C=C(C2=C(C=C(C=C21)C3=CN=C(C=C3)N4CCNCC4)C(=O)NCC5=C(C=C(NC5=O)C)C)C
Procedure, shortened: as §1

[4] = compound: CC[C@H](C)[C@@H](C(=O)N[C@@H]([C@@H](C)O)C(=O)N[C@@H](CC(C)C)C(=O)[C@]1(CO1)C)NC(=O)[C@H]([C@@H](C)CC)N(C)C(=O)C [epoxomicin]
Procedure, shortened: as §1

[5] = compound: CCn1c(C(=O)N(C2CC2)C2CC2)cc2c3c(ncn3C)c(Nc3cc(C)n(C)n3)nc21
Procedure, shortened: as §1

[6] = compound: CCn1cc(-c2ccnc3[nH]c(-c4cccc(CN(C)C)c4)cc23)c(-c2ccc(NC(=O)N(C)C)cc2)n1
Procedure, shortened: as §1

[7] = compound: CN(C)CC(=O)Nc1ccc2[nH]c(=O)c3ccccc3c2c1
Procedure, shortened: as §1

[8] = compound: CN(CCOC1=CC=C(C=C1)C[C@H]2C(=O)NC(=O)S2)C3=CC=CC=N3 (racemic) [rosiglitazone]
Procedure, shortened: as §1

[9] = compound: CN1C2=C(C3=C1C(=O)N(N=C3)CC4=CC(=CC=C4)N)SC(=C2)S(=O)C
Procedure, shortened: as §1

[10] = compound: CN1CCC(CNc2ccc3ncc(-c4cccc(OC(F)(F)F)c4)n3n2)CC1
Procedure, shortened: as §1

[11] = compound: CN1CCN(CCOc2cc(OC3CCOCC3)c3c(Nc4c(Cl)ccc5c4OCO5)ncnc3c2)CC1 [saracatinib]
Procedure, shortened: as §1

[12] = compound: CN1CCN(c2nc(C3=C(c4c[nH]c5ccccc45)C(=O)NC3=O)c3ccccc3n2)CC1 [sotrastaurin]
Procedure, shortened: as §1

[13] = compound: CN1CC[C@H](c2c(O)cc(O)c3c(=O)cc(-c4ccccc4Cl)oc23)[C@H](O)C1 [alvocidib]
Procedure, shortened: as §1

[14] = compound: CN1CCc2c(c3ccccc3n2Cc2ccc(C(=O)NO)cc2)C1 [Tubastatin A]
Procedure, shortened: as §1

[15] = compound: CNC(=O)C1=CC=CC=C1NC2=NC(=NC=C2Cl)NC3=C(C=C(C=C3)N4CCOCC4)OC
Procedure, shortened: as §1

[16] = compound: CNC(=O)c1ccc(Nc2ncc(C(F)(F)F)c(NCc3nccnc3N(C)S(C)(=O)=O)n2)cc1 [defactinib]
Procedure, shortened: as §1

[17] = compound: CNCc1ccc(-c2[nH]c3cc(F)cc4c3c2CCNC4=O)cc1 [rucaparib]
Procedure, shortened: as §1

[18] = compound: CNc1nc(-c2ccc3c(N)n[nH]c3c2)cc(N2C[C@@H](C(=O)NC3CCCCC3)CC[C@H]2C)n1
Procedure, shortened: as §1

[19] = compound: COC(=O)N[C@@H](C)CNc1nccc(-c2cn(C(C)C)nc2-c2cc(Cl)cc(NS(C)(=O)=O)c2F)n1 [encorafenib]
Procedure, shortened: as §1

[20] = compound: COC(=O)[C@H](CCSC)NC(=O)C1=C(C=C(C=C1)NC[C@H](CS)N)C2=CC=CC=C2
Procedure, shortened: as §1

Measured: log2 fold change

RPL9 (UniProt P32969)
inactive: [1] 0.256 | [2] 0.624 | [3] 0.005 | [4] -0.503 | [5] 0.001 | [6] 0.184 | [7] -0.233 | [8] -0.264 | [9] 0.446 | [10] 0.352 | [11] -0.134 | [12] -0.062 | [13] 0.455 | [14] 0.247 | [15] 0.125 | [16] 0.577 | [17] 0.472 | [18] 0.126 | [19] 0.216 | [20] 0.036

RPL19 (UniProt P84098)
inactive: [1] 0.205 | [2] 0.506 | [3] -0.024 | [4] -0.485 | [5] -0.004 | [6] 0.344 | [7] -0.179 | [8] -0.232 | [9] 0.307 | [10] 0.429 | [11] -0.182 | [12] -0.013 | [13] 0.295 | [14] 0.132 | [15] 0.042 | [16] 0.368 | [17] 0.453 | [18] 0.123 | [19] 0.15 | [20] -0.058

RPL27 (UniProt P61353)
inactive: [1] 0.228 | [2] 0.578 | [3] -0.002 | [4] -0.622 | [5] 0.032 | [6] 0.286 | [7] -0.245 | [8] -0.256 | [9] 0.425 | [10] 0.438 | [11] -0.119 | [12] 0.063 | [13] 0.392 | [14] 0.198 | [15] 0.017 | [16] 0.508 | [17] 0.333 | [18] 0.179 | [19] 0.205 | [20] -0.09

RPS8 (UniProt P62241)
inactive: [1] 0.146 | [2] 0.499 | [3] 0.011 | [4] -0.316 | [5] 0.089 | [6] 0 | [7] -0.171 | [8] -0.105 | [9] 0.251 | [10] 0.221 | [11] -0.079 | [12] 0 | [13] 0.263 | [14] 0.138 | [15] 0.079 | [16] 0.338 | [17] 0.279 | [18] 0.134 | [19] 0.106 | [20] 0.02

RPL22 (UniProt P35268)
inactive: [1] 0.189 | [2] 0.335 | [3] -0.005 | [4] -0.259 | [5] 0.013 | [6] 0.156 | [7] -0.087 | [8] -0.045 | [9] 0.167 | [10] 0.164 | [11] -0.102 | [12] -0.004 | [13] 0.278 | [14] 0.106 | [15] 0.05 | [16] 0.25 | [17] 0.252 | [18] 0.096 | [19] 0.098 | [20] 0.031

RNGTT (UniProt O60942)
inactive: [1] -0.054 | [2] -0.186 | [3] 0.019 | [4] 0.212 | [5] -0.03 | [6] -0.03 | [7] 0.012 | [8] 0.01 | [9] 0.005 | [10] 0.009 | [11] -0.079 | [12] -0.076 | [13] -0.131 | [14] 0.012 | [15] -0.005 | [16] -0.055 | [17] 0.012 | [18] 0.025 | [19] 0.11 | [20] -0.048

RPL32 (UniProt P62910)
inactive: [1] 0.225 | [2] 0.694 | [3] 0.001 | [4] -0.364 | [5] 0.038 | [6] 0.046 | [7] -0.195 | [8] -0.266 | [9] 0.418 | [10] 0.417 | [11] -0.127 | [12] -0.099 | [13] 0.385 | [14] 0.197 | [15] 0.046 | [16] 0.53 | [17] 0.416 | [18] 0.203 | [19] 0.193 | [20] -0.035

RPLP1 (UniProt P05386)
inactive: [1] 0.302 | [2] 0.652 | [3] 0.026 | [4] -0.193 | [5] 0.018 | [6] 0.433 | [7] -0.134 | [8] -0.24 | [9] 0.422 | [10] 0.596 | [11] -0.133 | [12] 0.13 | [13] 0.372 | [14] 0.235 | [15] 0.092 | [16] 0.293 | [17] 0.398 | [18] 0.125 | [19] 0.147 | [20] 0.159

RPL36A (UniProt P83881)
inactive: [1] 0.218 | [2] 0.536 | [3] -0.07 | [4] -0.27 | [5] 0.081 | [6] 0.308 | [7] -0.064 | [8] -0.263 | [9] 0.327 | [10] 0.321 | [11] -0.219 | [12] 0.016 | [13] 0.381 | [14] 0.167 | [15] 0.073 | [16] 0.299 | [17] 0.34 | [18] 0.101 | [19] 0.188 | [20] -0.004

RPL37A (UniProt P61513)
inactive: [1] 0.267 | [2] 0.718 | [3] -0.009 | [4] -0.493 | [5] -0.009 | [6] 0.168 | [7] -0.282 | [8] -0.4 | [9] 0.496 | [10] 0.368 | [11] -0.236 | [12] -0.021 | [13] 0.405 | [14] 0.215 | [15] 0.018 | [16] 0.675 | [17] 0.532 | [18] 0.24 | [19] 0.175 | [20] 0.001

RNH1 (UniProt P13489)
inactive: [1] -0.066 | [2] -0.115 | [3] 0.016 | [4] 0.032 | [5] -0.005 | [6] -0.034 | [7] 0.028 | [8] 0.041 | [9] -0.096 | [10] -0.079 | [11] 0.013 | [12] -0.031 | [13] -0.081 | [14] -0.004 | [15] 0.233 | [16] -0.038 | [17] -0.059 | [18] -0.032 | [19] -0.018 | [20] 0.015

RPS6KC1 (UniProt Q96S38)
inactive: [1] 0.126 | [2] -0.072 | [3] -0.02 | [4] -0.016 | [5] 0.02 | [6] -0.06 | [7] 0.032 | [8] 0.055 | [9] -0.283 | [10] 0 | [11] -0.586 | [12] -0.053 | [13] -0.041 | [14] 0.022 | [15] -0.042 | [16] -0.084 | [17] 0.084 | [18] -0.411 | [19] -0.156 | [20] -0.038

RPS6KB1 (UniProt P23443)
inactive: [1] -0.016 | [2] -0.112 | [3] 0.028 | [4] -0.019 | [5] 0.02 | [6] -0.075 | [7] -0.019 | [8] 0.083 | [9] -0.084 | [10] -0.139 | [11] 0.072 | [12] -0.018 | [13] -0.042 | [14] -0.003 | [15] 0.008 | [16] -0.038 | [17] -0.045 | [18] -0.007 | [19] 0.006 | [20] 0.01

RPL4 (UniProt P36578)
inactive: [1] 0.249 | [2] 0.844 | [3] 0.001 | [4] -0.726 | [5] 0.058 | [6] 0.3 | [7] -0.304 | [8] -0.32 | [9] 0.478 | [10] 0.408 | [11] -0.131 | [12] -0.076 | [13] 0.446 | [14] 0.256 | [15] 0.064 | [16] 0.628 | [17] 0.5 | [18] 0.23 | [19] 0.236 | [20] -0.04

RPL28 (UniProt P46779)
inactive: [1] 0.287 | [2] 0.718 | [3] 0.009 | [4] -0.776 | [5] 0.055 | [6] 0.286 | [7] -0.242 | [8] -0.278 | [9] 0.529 | [10] 0.386 | [11] -0.162 | [12] -0.042 | [13] 0.481 | [14] 0.208 | [15] 0.094 | [16] 0.573 | [17] 0.471 | [18] 0.215 | [19] 0.241 | [20] 0.019

Two successive records already listed:
RPS6KC1 (UniProt Q96S38)
inactive: [1] 0.126 | [2] -0.072 | [3] -0.02 | [4] -0.016 | [5] 0.02 | [6] -0.06 | [7] 0.032 | [8] 0.055 | [9] -0.283 | [10] 0 | [11] -0.586 | [12] -0.053 | [13] -0.041 | [14] 0.022 | [15] -0.042 | [16] -0.084 | [17] 0.084 | [18] -0.411 | [19] -0.156 | [20] -0.038

RPS6KB1 (UniProt P23443)
inactive: [1] -0.016 | [2] -0.112 | [3] 0.028 | [4] -0.019 | [5] 0.02 | [6] -0.075 | [7] -0.019 | [8] 0.083 | [9] -0.084 | [10] -0.139 | [11] 0.072 | [12] -0.018 | [13] -0.042 | [14] -0.003 | [15] 0.008 | [16] -0.038 | [17] -0.045 | [18] -0.007 | [19] 0.006 | [20] 0.01

Next results

RPL26 (UniProt P61254)
inactive: [1] 0 | [2] 0.519 | [3] 0.056 | [4] -0.424 | [5] -0.044 | [6] -0.119 | [7] -0.116 | [8] -0.162 | [9] 0.419 | [10] 0.499 | [11] -0.089 | [12] -0.3 | [13] 0.258 | [14] 0.136 | [15] 0.016 | [16] 0.13 | [17] 0.487 | [18] 0.088 | [19] 0.045 | [20] -0.192
